No constants are given. Whether binding was seen depends on the method and setting. Some entries that bind do so weakly or less than the wild type.
Biological target: SOX7, made in the cell-free protein production system (UniProt Q9BT81)
Assay: AlphaScreen or HTRF

By UniProt entry, the sequences of proteins in these tests, tags left out.
UniProt Q9BT81: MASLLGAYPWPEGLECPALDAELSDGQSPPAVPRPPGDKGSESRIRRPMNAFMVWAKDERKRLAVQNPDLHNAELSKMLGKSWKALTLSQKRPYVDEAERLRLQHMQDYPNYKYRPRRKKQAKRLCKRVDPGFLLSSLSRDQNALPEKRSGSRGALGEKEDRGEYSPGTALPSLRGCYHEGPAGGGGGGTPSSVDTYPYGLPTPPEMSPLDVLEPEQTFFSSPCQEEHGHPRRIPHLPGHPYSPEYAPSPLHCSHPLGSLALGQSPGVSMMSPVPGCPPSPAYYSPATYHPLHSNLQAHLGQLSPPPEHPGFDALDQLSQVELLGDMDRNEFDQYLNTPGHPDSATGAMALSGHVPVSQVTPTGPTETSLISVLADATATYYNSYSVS
UniProt Q06330: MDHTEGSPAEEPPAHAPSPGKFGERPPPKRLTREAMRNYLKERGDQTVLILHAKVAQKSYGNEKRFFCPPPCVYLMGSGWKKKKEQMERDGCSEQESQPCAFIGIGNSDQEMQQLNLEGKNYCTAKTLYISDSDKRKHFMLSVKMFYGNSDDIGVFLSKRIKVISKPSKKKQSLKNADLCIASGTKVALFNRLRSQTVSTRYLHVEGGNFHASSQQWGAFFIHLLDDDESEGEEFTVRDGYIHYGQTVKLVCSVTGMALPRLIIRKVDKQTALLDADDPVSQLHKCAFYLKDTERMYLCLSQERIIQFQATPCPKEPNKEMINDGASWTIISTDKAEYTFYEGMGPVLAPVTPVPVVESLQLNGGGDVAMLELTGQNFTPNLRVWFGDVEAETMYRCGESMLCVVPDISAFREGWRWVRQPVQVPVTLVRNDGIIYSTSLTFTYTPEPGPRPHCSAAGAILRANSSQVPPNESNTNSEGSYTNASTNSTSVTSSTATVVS

Molecule | binding
RBPJ, made in the cell-free protein production system (from UniProt Q06330 1-500) | binds
HEY1, made in the cell-free protein production system (natural protein) MKRAHPEYSSSDSELDETIEVEKESADENGNLSSALGSMSPTTSSQILARKRRRGIIEKRRRDRINNSLSELRRLVPSAFEKQGSAKLEKAEILQMTVDHLKMLHTAGGKGYFDAHALAMDYRSLGFRECLAEVARYLSIIEGLDASDPLRVRLVSHLNNYASQREAASGAHAGLGHIPWGTVFGHHPHIAHPLLLPQNGHGNAGTTASPTEPHHQGRLGSAHPEAPALRAPPSGSLGPVLPVVTSASKLSPPLLSSVASLSAFPFSFGSFHLLSPNALSPSAPTQAANLGKPYRPWGTEIGAF | binds

Reference: doi:10.1101/2021.07.02.450967 (bioRxiv, 2021)
